Laboratory results from the supplement of paper PMC10849652.
The list shows a part of the results.

By UniProt entry, the sequences of proteins in these tests, tags left out. Where a name states a change or a piece, a line headed by the entry shows the natural chain unless it says otherwise.
UniProt Q9UK97: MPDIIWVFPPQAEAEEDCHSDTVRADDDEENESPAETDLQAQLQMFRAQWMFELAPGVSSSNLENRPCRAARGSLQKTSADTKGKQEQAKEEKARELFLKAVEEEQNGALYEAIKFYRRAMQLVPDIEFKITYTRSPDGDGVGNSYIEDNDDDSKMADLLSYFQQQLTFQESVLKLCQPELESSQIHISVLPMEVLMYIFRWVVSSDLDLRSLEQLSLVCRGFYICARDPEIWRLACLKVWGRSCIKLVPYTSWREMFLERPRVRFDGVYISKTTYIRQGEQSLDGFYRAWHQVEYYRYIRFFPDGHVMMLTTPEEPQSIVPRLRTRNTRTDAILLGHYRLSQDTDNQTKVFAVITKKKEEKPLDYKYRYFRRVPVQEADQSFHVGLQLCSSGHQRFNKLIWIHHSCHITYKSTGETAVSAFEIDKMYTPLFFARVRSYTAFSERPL
UniProt Q9NVK5: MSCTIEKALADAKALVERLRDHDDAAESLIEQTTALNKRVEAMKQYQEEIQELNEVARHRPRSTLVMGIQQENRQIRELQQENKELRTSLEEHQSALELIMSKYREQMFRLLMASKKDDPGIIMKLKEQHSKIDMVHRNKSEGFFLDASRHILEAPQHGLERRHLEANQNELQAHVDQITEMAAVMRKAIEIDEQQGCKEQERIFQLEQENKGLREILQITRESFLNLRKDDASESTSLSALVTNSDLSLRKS
UniProt A2RU67: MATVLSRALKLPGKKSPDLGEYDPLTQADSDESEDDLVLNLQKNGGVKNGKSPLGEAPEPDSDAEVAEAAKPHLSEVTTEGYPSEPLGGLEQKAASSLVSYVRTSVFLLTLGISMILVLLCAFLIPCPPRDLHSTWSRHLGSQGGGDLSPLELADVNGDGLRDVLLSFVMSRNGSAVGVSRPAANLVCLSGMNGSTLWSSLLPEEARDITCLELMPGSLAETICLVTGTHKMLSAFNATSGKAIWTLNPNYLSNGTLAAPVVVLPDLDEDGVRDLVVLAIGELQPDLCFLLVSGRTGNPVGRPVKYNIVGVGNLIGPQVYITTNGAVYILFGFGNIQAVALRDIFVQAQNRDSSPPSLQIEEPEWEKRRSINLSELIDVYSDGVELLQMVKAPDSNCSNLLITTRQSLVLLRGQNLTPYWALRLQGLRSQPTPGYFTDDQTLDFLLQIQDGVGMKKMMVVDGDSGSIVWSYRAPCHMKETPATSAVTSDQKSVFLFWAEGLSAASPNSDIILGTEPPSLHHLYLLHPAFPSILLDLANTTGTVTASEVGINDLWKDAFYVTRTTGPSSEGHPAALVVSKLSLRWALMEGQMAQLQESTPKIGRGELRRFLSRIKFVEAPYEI
UniProt Q9H0X4: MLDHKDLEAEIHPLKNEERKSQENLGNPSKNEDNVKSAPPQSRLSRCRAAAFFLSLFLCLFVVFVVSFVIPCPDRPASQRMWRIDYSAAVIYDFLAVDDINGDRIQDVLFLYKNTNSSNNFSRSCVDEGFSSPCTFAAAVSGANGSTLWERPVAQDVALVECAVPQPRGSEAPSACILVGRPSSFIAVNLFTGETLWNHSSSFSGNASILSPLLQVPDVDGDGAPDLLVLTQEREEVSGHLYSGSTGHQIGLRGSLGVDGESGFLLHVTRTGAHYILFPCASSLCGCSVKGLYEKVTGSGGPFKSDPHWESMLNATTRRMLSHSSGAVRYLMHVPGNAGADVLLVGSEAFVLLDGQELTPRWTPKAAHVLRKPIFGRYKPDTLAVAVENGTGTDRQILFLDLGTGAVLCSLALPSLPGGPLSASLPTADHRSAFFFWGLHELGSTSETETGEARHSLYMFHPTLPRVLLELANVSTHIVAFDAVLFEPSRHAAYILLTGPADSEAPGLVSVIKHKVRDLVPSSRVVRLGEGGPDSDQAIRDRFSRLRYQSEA
UniProt O43427: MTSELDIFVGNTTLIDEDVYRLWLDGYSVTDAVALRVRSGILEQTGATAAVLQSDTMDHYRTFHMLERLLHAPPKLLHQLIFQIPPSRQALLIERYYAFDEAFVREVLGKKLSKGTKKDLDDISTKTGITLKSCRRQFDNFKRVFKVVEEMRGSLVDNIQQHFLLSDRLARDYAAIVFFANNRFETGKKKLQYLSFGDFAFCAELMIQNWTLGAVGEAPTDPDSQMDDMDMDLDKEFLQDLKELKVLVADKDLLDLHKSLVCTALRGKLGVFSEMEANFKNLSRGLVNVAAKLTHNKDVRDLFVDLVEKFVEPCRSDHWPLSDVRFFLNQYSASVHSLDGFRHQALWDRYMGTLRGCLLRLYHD
UniProt Q9H4H8: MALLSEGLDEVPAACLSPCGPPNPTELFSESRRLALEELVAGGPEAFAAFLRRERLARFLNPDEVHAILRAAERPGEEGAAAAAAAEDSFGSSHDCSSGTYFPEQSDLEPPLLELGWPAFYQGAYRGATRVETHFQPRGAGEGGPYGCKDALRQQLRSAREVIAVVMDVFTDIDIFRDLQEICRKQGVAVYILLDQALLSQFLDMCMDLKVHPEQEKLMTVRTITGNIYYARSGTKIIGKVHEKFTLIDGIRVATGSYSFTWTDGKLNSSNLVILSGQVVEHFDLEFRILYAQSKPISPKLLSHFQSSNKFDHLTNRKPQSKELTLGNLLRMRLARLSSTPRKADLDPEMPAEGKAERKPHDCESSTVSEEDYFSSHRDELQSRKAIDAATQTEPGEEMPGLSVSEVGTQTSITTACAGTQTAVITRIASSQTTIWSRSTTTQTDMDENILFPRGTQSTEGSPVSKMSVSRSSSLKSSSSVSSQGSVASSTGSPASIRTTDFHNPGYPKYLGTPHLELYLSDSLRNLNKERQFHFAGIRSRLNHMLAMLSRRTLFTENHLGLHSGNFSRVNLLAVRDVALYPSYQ
UniProt Q8NFG4: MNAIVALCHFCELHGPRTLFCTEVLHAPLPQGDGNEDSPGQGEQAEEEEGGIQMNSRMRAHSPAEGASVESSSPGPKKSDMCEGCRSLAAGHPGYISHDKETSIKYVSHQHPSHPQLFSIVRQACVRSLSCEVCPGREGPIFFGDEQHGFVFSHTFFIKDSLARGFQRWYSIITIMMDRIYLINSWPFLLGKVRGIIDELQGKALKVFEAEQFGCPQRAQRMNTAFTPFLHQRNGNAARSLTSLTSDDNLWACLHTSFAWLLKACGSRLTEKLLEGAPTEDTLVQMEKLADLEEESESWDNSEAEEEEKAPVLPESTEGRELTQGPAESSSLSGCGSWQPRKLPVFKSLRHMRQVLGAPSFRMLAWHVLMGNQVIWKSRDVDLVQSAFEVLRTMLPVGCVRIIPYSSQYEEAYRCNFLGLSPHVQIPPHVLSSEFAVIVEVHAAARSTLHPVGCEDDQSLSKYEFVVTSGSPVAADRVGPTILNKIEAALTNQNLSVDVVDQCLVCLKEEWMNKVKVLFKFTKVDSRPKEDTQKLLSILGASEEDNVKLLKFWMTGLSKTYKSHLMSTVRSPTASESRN
UniProt Q8IW50: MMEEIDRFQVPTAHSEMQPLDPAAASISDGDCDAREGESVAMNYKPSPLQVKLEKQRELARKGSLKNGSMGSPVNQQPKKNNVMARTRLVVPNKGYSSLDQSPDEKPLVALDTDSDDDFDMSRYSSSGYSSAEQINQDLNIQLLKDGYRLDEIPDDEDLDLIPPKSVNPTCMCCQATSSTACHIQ
UniProt B1AJZ9: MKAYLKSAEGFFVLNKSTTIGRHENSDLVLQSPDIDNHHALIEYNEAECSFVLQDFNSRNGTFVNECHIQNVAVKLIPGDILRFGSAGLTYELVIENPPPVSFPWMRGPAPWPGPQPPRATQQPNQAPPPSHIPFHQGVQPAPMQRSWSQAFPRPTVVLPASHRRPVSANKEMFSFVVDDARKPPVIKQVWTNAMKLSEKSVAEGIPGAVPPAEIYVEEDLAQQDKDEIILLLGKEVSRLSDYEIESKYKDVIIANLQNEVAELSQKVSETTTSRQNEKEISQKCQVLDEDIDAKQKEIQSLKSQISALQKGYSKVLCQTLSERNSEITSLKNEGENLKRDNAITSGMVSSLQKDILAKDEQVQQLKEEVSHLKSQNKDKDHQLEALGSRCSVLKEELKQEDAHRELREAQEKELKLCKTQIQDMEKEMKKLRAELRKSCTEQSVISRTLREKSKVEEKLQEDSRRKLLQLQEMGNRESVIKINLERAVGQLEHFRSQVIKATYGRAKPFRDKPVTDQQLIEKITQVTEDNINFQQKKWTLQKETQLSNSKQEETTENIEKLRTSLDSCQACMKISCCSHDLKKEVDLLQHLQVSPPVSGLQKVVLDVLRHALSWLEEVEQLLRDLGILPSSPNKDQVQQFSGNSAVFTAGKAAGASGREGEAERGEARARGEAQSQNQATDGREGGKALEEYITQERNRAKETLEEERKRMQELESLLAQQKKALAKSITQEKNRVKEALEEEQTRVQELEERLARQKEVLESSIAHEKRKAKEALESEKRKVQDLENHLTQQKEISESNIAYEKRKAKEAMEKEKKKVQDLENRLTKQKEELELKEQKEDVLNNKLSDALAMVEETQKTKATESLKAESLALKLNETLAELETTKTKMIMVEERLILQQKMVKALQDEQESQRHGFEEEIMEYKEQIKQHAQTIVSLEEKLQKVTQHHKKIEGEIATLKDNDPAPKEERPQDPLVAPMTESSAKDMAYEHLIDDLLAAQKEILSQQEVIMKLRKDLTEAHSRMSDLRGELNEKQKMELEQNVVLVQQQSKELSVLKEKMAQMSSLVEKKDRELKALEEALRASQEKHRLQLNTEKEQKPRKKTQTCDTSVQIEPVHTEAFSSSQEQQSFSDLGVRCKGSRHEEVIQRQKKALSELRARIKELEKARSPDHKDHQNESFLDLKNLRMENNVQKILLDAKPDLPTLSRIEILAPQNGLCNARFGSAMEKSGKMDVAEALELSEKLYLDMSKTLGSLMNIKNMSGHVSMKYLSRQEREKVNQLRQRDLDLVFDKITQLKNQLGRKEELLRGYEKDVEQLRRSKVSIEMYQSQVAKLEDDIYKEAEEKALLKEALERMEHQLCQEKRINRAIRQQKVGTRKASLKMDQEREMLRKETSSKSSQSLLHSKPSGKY
UniProt Q9UKB1: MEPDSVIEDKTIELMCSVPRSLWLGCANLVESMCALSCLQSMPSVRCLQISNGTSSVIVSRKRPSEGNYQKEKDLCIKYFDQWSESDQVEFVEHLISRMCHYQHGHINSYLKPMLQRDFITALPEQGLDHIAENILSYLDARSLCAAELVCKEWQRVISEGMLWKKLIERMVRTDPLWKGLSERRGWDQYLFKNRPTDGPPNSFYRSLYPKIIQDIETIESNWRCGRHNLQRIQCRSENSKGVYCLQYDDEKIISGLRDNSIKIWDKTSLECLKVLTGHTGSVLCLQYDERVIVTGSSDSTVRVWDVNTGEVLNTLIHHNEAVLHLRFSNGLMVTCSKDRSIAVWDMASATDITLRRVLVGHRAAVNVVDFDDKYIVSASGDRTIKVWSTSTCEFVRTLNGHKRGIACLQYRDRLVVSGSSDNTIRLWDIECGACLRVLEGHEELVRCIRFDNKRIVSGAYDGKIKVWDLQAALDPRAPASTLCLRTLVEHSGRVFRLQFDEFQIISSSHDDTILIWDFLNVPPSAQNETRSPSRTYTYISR
UniProt O94887: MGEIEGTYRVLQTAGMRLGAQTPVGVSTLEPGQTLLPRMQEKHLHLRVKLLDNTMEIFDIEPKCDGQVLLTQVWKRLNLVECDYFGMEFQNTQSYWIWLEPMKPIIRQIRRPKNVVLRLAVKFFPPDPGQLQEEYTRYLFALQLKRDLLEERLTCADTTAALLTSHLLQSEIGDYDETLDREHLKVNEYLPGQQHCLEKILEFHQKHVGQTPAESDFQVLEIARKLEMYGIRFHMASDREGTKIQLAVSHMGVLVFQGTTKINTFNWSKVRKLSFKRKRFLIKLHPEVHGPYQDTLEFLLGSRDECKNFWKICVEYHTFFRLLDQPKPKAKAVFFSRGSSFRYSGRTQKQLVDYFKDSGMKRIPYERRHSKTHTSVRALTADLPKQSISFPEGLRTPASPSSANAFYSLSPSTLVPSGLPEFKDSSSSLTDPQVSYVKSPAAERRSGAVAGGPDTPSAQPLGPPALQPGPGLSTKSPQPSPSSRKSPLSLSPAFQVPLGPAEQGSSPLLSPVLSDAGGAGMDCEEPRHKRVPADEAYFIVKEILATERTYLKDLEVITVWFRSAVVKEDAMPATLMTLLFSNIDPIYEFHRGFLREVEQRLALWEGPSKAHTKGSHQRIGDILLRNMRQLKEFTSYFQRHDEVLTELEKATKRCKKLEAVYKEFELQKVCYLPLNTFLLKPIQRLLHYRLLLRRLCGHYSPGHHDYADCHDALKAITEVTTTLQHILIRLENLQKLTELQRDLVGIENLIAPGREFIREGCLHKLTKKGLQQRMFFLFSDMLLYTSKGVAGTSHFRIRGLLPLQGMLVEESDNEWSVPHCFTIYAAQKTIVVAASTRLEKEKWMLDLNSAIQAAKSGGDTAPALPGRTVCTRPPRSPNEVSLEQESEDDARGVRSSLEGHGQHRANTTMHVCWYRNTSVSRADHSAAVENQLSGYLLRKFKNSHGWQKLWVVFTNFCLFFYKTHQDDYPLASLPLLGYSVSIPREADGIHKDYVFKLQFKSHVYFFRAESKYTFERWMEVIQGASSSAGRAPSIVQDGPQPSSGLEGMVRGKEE

Columns and labels:
Test in all cases: log2 fold change, soluble protein after heating vs DMSO (PISA); higher = thermal stabilisation; K562 cells, 10 uM, 30 min; active = over 0.2 and 3.5 SD of the protein, either way, in both replicates (recomputed)
[1] = compound: COC1=CC=C(C=C1)CN2C=CC3=C2C=C(C=C3)C(=O)NO
Method in brief: (§1)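 Soluble protein was defined as the supernatant after 21,000xg for 90 min. It came from K562 cells at 2×10^6 cells/mL given 10 μM compound for 30 min, heated in aliquots for 3 min across 48°C-58°C, pooled, and extracted in PBS with 0.5% NP-40 at 4°C, and was quantified by TMTpro 16plex LC-MS/MS with equalised channel sums. Thermal stability against control samples, from duplicates, is reported as log2 fold change.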

zotarolimus = compound: CO[C@H]1C[C@@H]2CC[C@@H](C)[C@@](O)(O2)C(=O)C(=O)N2CCCC[C@H]2C(=O)O[C@H]([C@H](C)C[C@@H]2CC[C@H](n3cnnn3)[C@H](OC)C2)CC(=O)[C@H](C)/C=C(\C)[C@@H](O)[C@@H](OC)C(=O)[C@H](C)C[C@H](C)/C=C/C=C/C=C/1C [zotarolimus]
Method in brief: as §1

alisertib = compound: COc1cc(Nc2ncc3c(n2)-c2ccc(Cl)cc2C(c2c(F)cccc2OC)=NC3)ccc1C(=O)O [alisertib]
Method in brief: as §1

[2] = compound: COc1cc2nc(-c3cc(F)ccc3O)nc(N[C@@H]3CNC[C@H]3C(C)(C)O)c2cc1OC
Method in brief: as §1

gefitinib = compound: COc1cc2ncnc(Nc3ccc(F)c(Cl)c3)c2cc1OCCCN1CCOCC1 [gefitinib]
Method in brief: as §1

[3] = compound: COc1cccc2cc(-c3nc([C@H]4CC[C@H](C(=O)O)CC4)n4ncnc(N)c34)[nH]c12
Method in brief: as §1

lapatinib = compound: CS(=O)(=O)CCNCc1ccc(-c2ccc3ncnc(Nc4ccc(OCc5cccc(F)c5)c(Cl)c4)c3c2)o1 [lapatinib]
Method in brief: as §1

pictilisib = compound: CS(=O)(=O)N1CCN(Cc2cc3nc(-c4cccc5[nH]ncc45)nc(N4CCOCC4)c3s2)CC1 [pictilisib]
Method in brief: as §1

crizotinib = compound: C[C@@H](Oc1cc(-c2cnn(C3CCNCC3)c2)cnc1N)c1c(Cl)ccc(F)c1Cl [crizotinib]
Method in brief: as §1

[4] = compound: C[C@H](C1=CC=C(C=C1)C(=O)NC2=C3C=CNC3=NC=C2)N
Method in brief: as §1

gandotinib = compound: Cc1cc(Nc2cc(CN3CCOCC3)c3nc(C)c(Cc4ccc(Cl)cc4F)n3n2)n[nH]1 [gandotinib]
Method in brief: as §1

[5] = compound: Cc1cc(SCc2sc(-c3ccc(C(F)(F)F)cc3)nc2C)ccc1OCC(=O)O
Method in brief: as §1

doramapimod = compound: Cc1ccc(-n2nc(C(C)(C)C)cc2NC(=O)Nc2ccc(OCCN3CCOCC3)c3ccccc23)cc1 [doramapimod]
Method in brief: as §1

ispinesib = compound: Cc1ccc(C(=O)N(CCCN)[C@@H](c2nc3cc(Cl)ccc3c(=O)n2Cc2ccccc2)C(C)C)cc1 [ispinesib]
Method in brief: as §1

idasanutlin = compound: COc1cc(C(=O)O)ccc1NC(=O)[C@@H]1N[C@@H](CC(C)(C)C)[C@](C#N)(c2ccc(Cl)cc2F)[C@H]1c1cccc(Cl)c1F [idasanutlin]
Method in brief: as §1

[6] = compound: C[C@@H]1COCCN1C2=NC(=NC(=C2)C3(CC3)S(=O)(=O)C)C4=C5C=CNC5=CC=C4
Method in brief: as §1

duvelisib = compound: C[C@H](Nc1ncnc2nc[nH]c12)c1cc2cccc(Cl)c2c(=O)n1-c1ccccc1 [duvelisib]
Method in brief: as §1

tozasertib = compound: Cc1cc(Nc2cc(N3CCN(C)CC3)nc(Sc3ccc(NC(=O)C4CC4)cc3)n2)n[nH]1 [tozasertib]
Method in brief: as §1

filanesib = compound: CON(C)C(=O)N1N=C(c2cc(F)ccc2F)S[C@@]1(CCCN)c1ccccc1 [filanesib]
Method in brief: as §1

[7] = compound: CS(=O)(=O)c1ccc(-c2cnc(N)c(C(=O)Nc3ccccc3)n2)cc1
Method in brief: as §1

Target	log2 fold change [1]	log2 fold change (zotarolimus)	log2 fold change (alisertib)	log2 fold change [2]	log2 fold change (gefitinib)	log2 fold change [3]	log2 fold change (lapatinib)	log2 fold change (pictilisib)	log2 fold change (crizotinib)	log2 fold change [4]	log2 fold change (gandotinib)	log2 fold change [5]	log2 fold change (doramapimod)	log2 fold change (ispinesib)	log2 fold change (idasanutlin)	log2 fold change [6]	log2 fold change (duvelisib)	log2 fold change (tozasertib)	log2 fold change (filanesib)	log2 fold change [7]
FBXO9 (UniProt Q9UK97)	inactive: 0.124	inactive: -0.027	active: 0.466	inactive: -0.169	inactive: 0.007	inactive: 0.077	inactive: 0.012	inactive: 0.036	inactive: 0.028	inactive: -0.046	inactive: -0.151	inactive: 0.079	inactive: -0.081	inactive: -0.057	–	–	–	–	–	–
FGFR1OP2 (UniProt Q9NVK5)	inactive: -0.214	inactive: 0.06	inactive: -0.003	–	inactive: 0.076	inactive: -0.015	–	inactive: -0.054	inactive: 0.21	inactive: 0.053	inactive: -0.003	inactive: -0.036	inactive: 0.022	–	inactive: 0.052	inactive: 0.039	inactive: 0	inactive: 0.022	–	–
FAM234B (UniProt A2RU67)	inactive: -0.033	inactive: -0.055	–	inactive: -0.087	–	–	inactive: 0.335	–	inactive: -0.002	inactive: -0.099	–	–	inactive: 0.074	inactive: 0.137	inactive: 0.16	–	–	inactive: -0.026	inactive: 0.018	inactive: -0.004
FBH1 isoform 2 (UniProt Q8NFZ0)	inactive: 0.106	–	inactive: -0.087	inactive: -0.002	inactive: -0.063	inactive: 0.281	inactive: 0.038	inactive: 0.012	inactive: -0.027	–	inactive: 0.067	–	inactive: -0.018	inactive: -0.074	inactive: 0.081	inactive: -0.03	–	inactive: -0.08	inactive: 0.095	inactive: -0.088
FAM234A (UniProt Q9H0X4)	inactive: -0.104	inactive: -0.015	inactive: 0.211	inactive: 0.223	inactive: -0.008	inactive: -0.014	inactive: -0.078	–	inactive: 0.04	inactive: -0.016	–	inactive: -0.025	inactive: 0.002	inactive: 0.127	inactive: 0.015	inactive: -0.021	inactive: 0.053	inactive: -0.045	inactive: 0.002	inactive: 0.009
FAT3 isoform 1 (UniProt Q8TDW7)	inactive: 0.164	–	inactive: 0	inactive: 0.124	inactive: 0.087	inactive: 0.332	inactive: 0.002	–	inactive: -0.219	–	–	inactive: -0.092	inactive: -0.024	inactive: -0.137	–	inactive: 0.076	inactive: -0.125	–	inactive: 0.068	inactive: 0.058
FIBP (UniProt O43427)	inactive: 0.083	inactive: -0.047	inactive: 0.016	inactive: 0.042	–	inactive: -0.084	inactive: 0.008	inactive: 0.185	inactive: -0.043	inactive: 0.118	inactive: -0.094	inactive: 0.02	inactive: -0.048	inactive: -0.052	inactive: 0.03	inactive: 0.257	–	–	inactive: -0.051	inactive: 0.022
FDPS (UniProt P14324)	inactive: 0.048	inactive: 0.019	inactive: 0.066	inactive: 0.118	inactive: -0.047	inactive: 0.009	inactive: -0.018	inactive: -0.076	active: -0.768	inactive: 0.117	inactive: -0.091	inactive: 0.222	inactive: 0.004	active: -0.493	inactive: -0.063	inactive: 0.073	–	–	inactive: -0.246	inactive: 0.07
FBXW2 (UniProt Q9UKT8)	inactive: -0.264	inactive: -0.024	inactive: -0.173	inactive: 0.147	–	inactive: 0.137	inactive: 0.027	–	inactive: 0.059	inactive: 0.024	–	inactive: -0.039	inactive: 0.052	inactive: -0.104	inactive: -0.11	inactive: 0.003	inactive: -0.108	inactive: -0.146	inactive: 0.102	inactive: 0.083
FAM83D (UniProt Q9H4H8)	inactive: -0.009	inactive: 0.051	inactive: -0.135	inactive: 0.018	inactive: 0.05	inactive: -0.034	inactive: 0.021	inactive: -0.136	inactive: -0.061	inactive: 0.014	active: -0.308	inactive: 0.08	inactive: -0.009	inactive: 0.064	inactive: -0.109	inactive: 0.021	–	–	inactive: 0.062	inactive: -0.018
FGGY isoform 3 (UniProt Q96C11)	inactive: 0.055	inactive: -0.111	inactive: -0.148	inactive: 0.043	–	inactive: 0.02	inactive: -0.124	inactive: -0.182	inactive: 0	inactive: -0.125	inactive: -0.175	inactive: 0.131	inactive: -0.101	inactive: 0.067	inactive: -0.069	inactive: -0.145	inactive: 0.089	inactive: 0.035	–	–
FCHO1 (UniProt O14526)	inactive: 0.061	inactive: 0.068	inactive: -0.055	inactive: 0.256	inactive: 0.046	inactive: 0.022	inactive: -0.105	–	inactive: -0.118	inactive: 0.161	–	inactive: 0.109	inactive: -0.009	inactive: -0.264	inactive: 0.072	inactive: 0.158	–	–	inactive: 0.055	inactive: 0.033
FLCN (UniProt Q8NFG4)	inactive: 0.048	inactive: 0.133	inactive: -0.032	–	inactive: -0.022	inactive: 0.093	–	inactive: -0.208	inactive: -0.286	inactive: 0.18	inactive: 0.071	inactive: 0.069	inactive: 0.005	inactive: -0.252	inactive: 0.026	inactive: 0.199	inactive: -0.075	inactive: -0.143	inactive: 0.049	inactive: 0.048
FAM219A (UniProt Q8IW50)	inactive: -0.033	inactive: -0.033	inactive: 0.104	inactive: 0.064	inactive: 0.25	inactive: -0.057	inactive: -0.029	–	inactive: 0.067	inactive: -0.062	–	inactive: -0.071	inactive: 0.115	–	inactive: -0.087	inactive: -0.212	inactive: 0.014	inactive: 0	inactive: 0.014	inactive: -0.027
FHAD1 isoform 3 (UniProt B1AJZ9)	inactive: -0.01	inactive: -0.417	–	inactive: -0.13	–	–	inactive: 0.025	inactive: -0.099	inactive: -0.079	inactive: -0.183	inactive: -0.105	inactive: 0.054	inactive: -0.223	inactive: -0.115	inactive: -0.232	–	inactive: -0.082	inactive: -0.078	–	–
FBXW11 (UniProt Q9UKB1)	inactive: -0.049	inactive: 0.019	–	inactive: -0.023	–	–	inactive: -0.034	inactive: 0.005	inactive: -0.174	inactive: 0.106	inactive: 0.063	inactive: -0.028	inactive: 0	inactive: -0.147	inactive: -0.2	–	inactive: -0.149	inactive: 0.046	–	–
FAM53B (UniProt Q14153)	inactive: -0.001	–	inactive: -0.138	–	–	inactive: 0.161	–	–	inactive: -0.037	–	–	inactive: -0.028	inactive: 0.06	inactive: 0.041	–	inactive: 0.023	inactive: -0.065	–	–	–
FMOD (UniProt Q06828)	–	–	–	–	–	–	–	–	–	–	–	–	–	–	inactive: 0.037	–	–	–	–	–
FARP2 (UniProt O94887)	–	inactive: -0.09	–	inactive: 0.237	–	–	inactive: -0.115	–	–	inactive: 0.135	–	inactive: -0.194	–	–	inactive: -0.322	–	inactive: 0.039	inactive: -0.021	–	–
FAM83A (UniProt Q86UY5)	–	–	inactive: 0.174	inactive: 0.026	inactive: 0.028	inactive: -0.084	inactive: -0.054	inactive: -0.293	–	–	inactive: -0.171	–	–	inactive: -0.16	inactive: 0.066	inactive: -0.154	–	inactive: 0.087	inactive: -0.018	inactive: 0.008

2 entries from above, reformatted.
Target,log2 fold change [1],log2 fold change (zotarolimus),log2 fold change (alisertib),log2 fold change [2],log2 fold change (gefitinib),log2 fold change [3],log2 fold change (lapatinib),log2 fold change (pictilisib),log2 fold change (crizotinib),log2 fold change [4],log2 fold change (gandotinib),log2 fold change [5],log2 fold change (doramapimod),log2 fold change (ispinesib),log2 fold change (idasanutlin),log2 fold change [6],log2 fold change (duvelisib),log2 fold change (tozasertib),log2 fold change (filanesib),log2 fold change [7]
FAM83D (UniProt Q9H4H8),inactive: -0.009,inactive: 0.051,inactive: -0.135,inactive: 0.018,inactive: 0.05,inactive: -0.034,inactive: 0.021,inactive: -0.136,inactive: -0.061,inactive: 0.014,active: -0.308,inactive: 0.08,inactive: -0.009,inactive: 0.064,inactive: -0.109,inactive: 0.021,–,–,inactive: 0.062,inactive: -0.018
FLCN (UniProt Q8NFG4),inactive: 0.048,inactive: 0.133,inactive: -0.032,–,inactive: -0.022,inactive: 0.093,–,inactive: -0.208,inactive: -0.286,inactive: 0.18,inactive: 0.071,inactive: 0.069,inactive: 0.005,inactive: -0.252,inactive: 0.026,inactive: 0.199,inactive: -0.075,inactive: -0.143,inactive: 0.049,inactive: 0.048
